Test results: the supplement of paper PMC6078165
Values are relative to the signal before dosing, not to a vehicle control; the signal also falls without drug.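 Fibroblast labels name human fibroblasts: mostly primary ones from tissues such as uterus (C12385, HUF), lung (H6013), bone (Hs27A), adrenal (HADF) and skin (WS1), plus mammary HMF and breast cancer-associated Hs343T. The cancer cells are basal-like or mesenchymal-like triple-negative breast cancer lines. The paper calls a changed response a hit when it shifts by more than 3x the replicate standard deviation. The tissue of the other fibroblasts is not given here.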

System: MDAMB436
Test: relative JC-1 red fluorescence (viability) vs pre-drug, coculture with fibroblast (fraction); higher = more viable cancer cells
Method: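 JC-1 labelled TNBC cells cocultured 1:1 (1,500 cells each) with CellTrace Violet stained primary or stromal fibroblasts in 384-well plates in FluoroBrite medium, treated with one of 42 anticancer drugs at 0.1, 1, 10 or 100 uM. JC-1 red fluorescence (mitochondrial integrity in cancer cells only) was read by plate reader every 8 h for 72 h. Values are normalised to each well's pre-drug value. The stock of one drug was tenfold lower, so its dose labels may be too high.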

Nc1ncn([C@@H]2O[C@H](CO)[C@@H](O)[C@H]2O)c(=O)n1 [Azacitidine]
relative JC-1 red fluorescence
Conditions | 8 h | 16 h | 24 h | 32 h | 40 h | 48 h | 56 h | 64 h | 72 h
10 µM, coculture fibroblast: C12385 | 0.7548 | 0.735 | 0.738 | 0.671 | 0.639 | 0.62 | 0.612 | 0.598 | 0.603
10 µM, coculture fibroblast: H6013 | 0.854 | 0.837 | 0.812 | 0.791 | 0.755 | 0.755 | 0.706 | 0.686 | 0.643
10 µM, coculture fibroblast: H6019 | 0.749 | 0.732 | 0.718 | 0.6483 | 0.6341 | 0.625 | 0.609 | 0.593 | 0.582
10 µM, coculture fibroblast: H6076 | 0.705 | 0.644 | 0.635 | 0.589 | 0.578 | 0.557 | 0.576 | 0.577 | 0.583
10 µM, coculture fibroblast: H6231 | 0.658 | 0.562 | 0.617 | 0.548 | 0.554 | 0.53 | 0.532 | 0.521 | 0.511
10 µM, coculture fibroblast: HADF | 0.796 | 0.772 | 0.746 | 0.7235 | 0.7136 | 0.736 | 0.682 | 0.67 | 0.633
10 µM, coculture fibroblast: HCFa | 0.767 | 0.737 | 0.725 | 0.703 | 0.692 | 0.721 | 0.674 | 0.669 | 0.623
10 µM, coculture fibroblast: HCPF | 0.682 | 0.649 | 0.658 | 0.592 | 0.589 | 0.555 | 0.541 | 0.535 | 0.524
10 µM, coculture fibroblast: HHSteC | 0.796 | 0.785 | 0.77 | 0.746 | 0.753 | 0.773 | 0.726 | 0.715 | 0.667
10 µM, coculture fibroblast: HMF | 0.67 | 0.626 | 0.626 | 0.581 | 0.5611 | 0.531 | 0.537 | 0.513 | 0.51
10 µM, coculture fibroblast: HPFa | 0.861 | 0.805 | 0.783 | 0.75 | 0.7468 | 0.7519 | 0.701 | 0.6861 | 0.6333
10 µM, coculture fibroblast: HUF | 0.7959 | 0.723 | 0.705 | 0.639 | 0.596 | 0.564 | 0.548 | 0.5332 | 0.5238
10 µM, coculture fibroblast: Hs5 | 0.7294 | 0.695 | 0.701 | 0.637 | 0.6406 | 0.6017 | 0.6125 | 0.5841 | 0.582
10 µM, coculture fibroblast: Hs27A | 0.7744 | 0.735 | 0.724 | 0.716 | 0.697 | 0.764 | 0.672 | 0.676 | 0.601
10 µM, coculture fibroblast: Hs343T | 0.727 | 0.689 | 0.678 | 0.641 | 0.634 | 0.59 | 0.584 | 0.576 | 0.562
10 µM, coculture fibroblast: WS1 | 0.764 | 0.739 | 0.742 | 0.676 | 0.657 | 0.642 | 0.641 | 0.634 | 0.639
100 µM, coculture fibroblast: C12385 | 0.807 | 0.701 | 0.694 | 0.638 | 0.602 | 0.583 | 0.57 | 0.555 | 0.553
100 µM, coculture fibroblast: H6013 | 0.801 | 0.799 | 0.784 | 0.777 | 0.766 | 0.786 | 0.758 | 0.745 | 0.7172
100 µM, coculture fibroblast: H6019 | 0.751 | 0.698 | 0.694 | 0.645 | 0.635 | 0.641 | 0.637 | 0.654 | 0.673
100 µM, coculture fibroblast: H6076 | 0.672 | 0.615 | 0.61 | 0.557 | 0.535 | 0.506 | 0.513 | 0.5126 | 0.5128
100 µM, coculture fibroblast: H6231 | 0.7682 | 0.6985 | 0.659 | 0.617 | 0.583 | 0.544 | 0.53 | 0.512 | 0.494
100 µM, coculture fibroblast: HADF | 0.85 | 0.859 | 0.866 | 0.7345 | 0.808 | 0.75 | 0.753 | 0.743 | 0.702
100 µM, coculture fibroblast: HCFa | 0.773 | 0.762 | 0.748 | 0.7287 | 0.7244 | 0.749 | 0.692 | 0.694 | 0.647
100 µM, coculture fibroblast: HCPF | 0.764 | 0.639 | 0.637 | 0.581 | 0.56 | 0.527 | 0.504 | 0.489 | 0.481
100 µM, coculture fibroblast: HHSteC | 0.794 | 0.7677 | 0.74044 | 0.7102 | 0.7003 | 0.7195 | 0.6655 | 0.652 | 0.61
100 µM, coculture fibroblast: HMF | 0.7256 | 0.663 | 0.646 | 0.606 | 0.593 | 0.55 | 0.5426 | 0.52 | 0.505
100 µM, coculture fibroblast: HPFa | 0.8742 | 0.832 | 0.806 | 0.7789 | 0.782 | 0.804 | 0.735 | 0.733 | 0.685
100 µM, coculture fibroblast: HUF | 0.834 | 0.754 | 0.748 | 0.689 | 0.657 | 0.635 | 0.619 | 0.611 | 0.61
100 µM, coculture fibroblast: Hs5 | 0.7356 | 0.672 | 0.671 | 0.6268 | 0.602 | 0.56 | 0.57 | 0.543 | 0.536
100 µM, coculture fibroblast: Hs27A | 0.849 | 0.785 | 0.769 | 0.7587 | 0.757 | 0.821 | 0.7466 | 0.748 | 0.6711
100 µM, coculture fibroblast: Hs343T | 0.704 | 0.669 | 0.656 | 0.613 | 0.595 | 0.56 | 0.528 | 0.507 | 0.492
100 µM, coculture fibroblast: WS1 | 0.798 | 0.698 | 0.713 | 0.66 | 0.624 | 0.613 | 0.609 | 0.587 | 0.583
